Assay results published in PMC4377001.
These are yes or no findings as the source states them, for the method shown. For some assays here: In cells and extracts the contact can be indirect. Some entries that bind do so weakly or less than the wild type. For some assays here: Sequences can lack the tags named with a protein.

Columns and labels:
[1] = biological target: T1, full-length Nop58 (two-hybrid fusion) (yeast) (UniProt Q12499); assay: two-hybrid; lexA DNA-binding domain (BD) fusions and Gal4 transcription activation domain (AD) fusions in yeast L40; reporter genes HIS3 and lacZ
T1 sequence: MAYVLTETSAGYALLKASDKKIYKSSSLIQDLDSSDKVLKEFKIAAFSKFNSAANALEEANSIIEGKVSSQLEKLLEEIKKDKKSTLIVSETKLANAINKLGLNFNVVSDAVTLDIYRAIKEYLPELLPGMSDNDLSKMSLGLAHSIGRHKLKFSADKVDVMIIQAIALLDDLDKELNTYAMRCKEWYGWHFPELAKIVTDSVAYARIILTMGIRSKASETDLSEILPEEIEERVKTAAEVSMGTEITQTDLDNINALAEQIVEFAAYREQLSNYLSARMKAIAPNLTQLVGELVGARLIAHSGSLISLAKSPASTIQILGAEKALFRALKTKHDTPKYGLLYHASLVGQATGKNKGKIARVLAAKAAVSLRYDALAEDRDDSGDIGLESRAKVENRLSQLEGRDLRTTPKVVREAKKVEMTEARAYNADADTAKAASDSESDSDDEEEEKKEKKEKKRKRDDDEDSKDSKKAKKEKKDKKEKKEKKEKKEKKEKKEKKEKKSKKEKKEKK

GST-Snu13 (yeast) = biological target: T2, GST-Snu13 (yeast) (UniProt P39990); assay: pull-down; GST or GST-Snu13 from E. coli total extract bound to glutathione-sepharose in PBS (1 hour, 4°C), washed, then incubated 2 hours with total extract expressing His-Nop1 and then His-Nop17, washes between; elution with 10 mM reduced glutathione; western blot with anti-GST and anti-His sera; only the target purified
T2 sequence: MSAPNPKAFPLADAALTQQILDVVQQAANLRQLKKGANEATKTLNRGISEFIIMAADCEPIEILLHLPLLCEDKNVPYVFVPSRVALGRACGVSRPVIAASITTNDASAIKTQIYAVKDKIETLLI

[2] = biological target: T3, GST-Snu13/His-Nop1 complex (yeast) (UniProt P39990+P15646); assay: as above
T3 sequence 1: T2 sequence
T3 sequence 2: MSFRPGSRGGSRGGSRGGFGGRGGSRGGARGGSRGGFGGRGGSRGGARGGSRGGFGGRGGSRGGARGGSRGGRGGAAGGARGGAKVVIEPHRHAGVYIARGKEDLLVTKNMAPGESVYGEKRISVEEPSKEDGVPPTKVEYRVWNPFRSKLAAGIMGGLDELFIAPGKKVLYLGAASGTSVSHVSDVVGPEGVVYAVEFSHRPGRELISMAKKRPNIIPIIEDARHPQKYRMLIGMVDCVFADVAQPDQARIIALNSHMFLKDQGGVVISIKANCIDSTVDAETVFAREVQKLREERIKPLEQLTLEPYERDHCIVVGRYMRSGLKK

[3] = biological target: T4, ProtA-Nop58 (yeast), Q12499; assay: co-IP; ProtA-Nop58 from total yeast extract (WT and Δnop17 strains) on IgG-Sepharose, 2 hours at 4°C; 20 mM Tris-Cl pH 8.0, 0.5 mM magnesium acetate, 0.2% Triton X-100, 150 mM potassium acetate, 1 mM DTT; western blot; settings: remark: other sources report otherwise
T4 chain: T1 sequence

B1: Snu13 (two-hybrid fusion) (protein, UniProt P39990 1-126)
chain: T2 sequence
Question: For B1, which binding [1] is on record?
Answer: binds

B2: His-Nop1 (protein, UniProt P15646 1-327)
chain: T3 sequence 2
Question: For B2, which binding (GST-Snu13 (yeast)) is on record?
Answer: binds

B3: His-Nop17 (protein, UniProt P38768 1-344)
chain: MADFLLRPIKQRHRNEDKYVSVDAADGSVSKIEPIADFVIKTKLLSANGPEKLQDGRKVFINVCHSPLVPKPEVDFNARIVFPLIIQNEWEIPIITSCYRMDHDKKGQECYVWDCCINSDCSRWICDDIQLREILVEWCLESCEIRDSVVLCRDRIAFPKMKKKGAELPALEVLNDELHQDYKAKMHKIIEEEAGDPMSILRGRNDDGDDNNDPDDGTLPPLFPIENKISGAKIEEIDKNEIAHRNLKQAPAPAPAPHEQQEDVPEYEVKMKRFKGAAYKLRILIENKAPNSKPDRFSPSYNFAENILYINGKLSIPLPRDIVVNAADIKIFHIRKERTLYIYI
Question: Which binding [2] does the source give for B3 here?
Answer: binds

Question: And the binding (GST-Snu13 (yeast))?
Answer: no binding

B4: Nop1 (endogenous), P15646 1-327 (protein)
chain: T3 sequence 2
Question: For B4, which binding [3] is on record?
Answer: no binding
